For at least one entry, the source does not settle the construct or the ends of the probe. At least one result comes from cells or an extract, where the contact may be indirect. The comparison behind a weaker result is the experiment's own reference, which may not be listed here. At least one verdict rests on a figure or table, not on a statement of the authors.
Assays:
[1] = target: E2f3 (endogenous, TKO HCC nuclear extract) (Mus musculus (TKO HCC cells)) (UniProt O35261); test: EMSA; conditions: EMSA: 20 mM HEPES, 10 mM KCl, 0.2 mM EDTA, 10% glycerol, 5 mM DTT (7 ul Binding Buffer D in 20 ul), 50 ng poly dI:dC, 0.15% NP-40, 1 ug BSA, 5 ug nuclear extract, protein in an extract, label: biotin
[2] = target: E2f1 (endogenous, TKO HCC nuclear extract) (Mus musculus (TKO HCC cells)) (UniProt Q61501); test: EMSA; conditions: EMSA: 20 mM HEPES, 10 mM KCl, 0.2 mM EDTA, 10% glycerol, 5 mM DTT (7 ul Binding Buffer D in 20 ul), 50 ng poly dI:dC, 0.15% NP-40, 1 ug BSA, 5 ug nuclear extract, protein in an extract, label: biotin
[3] = less intense than early consensus

Sequences of proteins named here, by UniProt entry; tags and fusion partners are left off. A change or cut given only in a name is not applied to a line headed by its entry.
UniProt O35261: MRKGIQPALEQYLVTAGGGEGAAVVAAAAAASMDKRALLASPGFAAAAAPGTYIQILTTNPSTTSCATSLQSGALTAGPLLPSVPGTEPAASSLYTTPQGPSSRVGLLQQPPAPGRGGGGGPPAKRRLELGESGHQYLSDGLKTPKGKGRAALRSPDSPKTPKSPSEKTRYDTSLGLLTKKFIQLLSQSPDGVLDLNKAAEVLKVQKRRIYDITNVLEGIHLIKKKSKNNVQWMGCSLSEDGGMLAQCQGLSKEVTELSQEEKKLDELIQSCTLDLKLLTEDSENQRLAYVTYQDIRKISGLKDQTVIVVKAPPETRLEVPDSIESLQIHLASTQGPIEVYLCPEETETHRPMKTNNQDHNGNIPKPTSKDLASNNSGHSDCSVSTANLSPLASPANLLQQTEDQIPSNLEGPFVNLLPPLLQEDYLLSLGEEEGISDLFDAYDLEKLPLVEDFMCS
UniProt Q61501: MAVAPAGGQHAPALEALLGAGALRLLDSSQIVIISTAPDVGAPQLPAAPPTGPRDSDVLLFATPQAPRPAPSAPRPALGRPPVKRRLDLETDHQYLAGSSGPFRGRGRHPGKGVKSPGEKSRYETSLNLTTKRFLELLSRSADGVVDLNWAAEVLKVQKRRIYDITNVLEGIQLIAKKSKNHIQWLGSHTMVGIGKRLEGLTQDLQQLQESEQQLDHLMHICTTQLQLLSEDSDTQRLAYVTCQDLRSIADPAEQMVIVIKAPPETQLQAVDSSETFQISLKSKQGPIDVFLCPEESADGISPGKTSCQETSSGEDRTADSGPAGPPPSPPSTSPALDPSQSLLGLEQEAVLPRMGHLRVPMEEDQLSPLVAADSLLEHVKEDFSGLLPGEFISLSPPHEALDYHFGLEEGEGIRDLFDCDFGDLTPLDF

Sequence	binding result [1, 3]	binding result [2, 3]	binding result ([1]; similar to early consensus)	binding result ([2]; similar to early consensus)
CAGGCGACAGCGGCGCGGAACGCAG (double strand) [Pfkl probe]	binds more weakly	binds more weakly		
CAGGCTTTTTCGGCGCGGAACGCAG (double strand) [Pfkl T-stretch probe]			binds	binds

— paper PMC4686657
